Results are given in words; binding and its absence hold for the method and conditions named. For part of these data: In cells and extracts the contact can be indirect. Some binding calls cover weakened binding; strength is not graded here. For part of these data: Where a sequence is shown, tags or fusion partners need not be part of it.

By UniProt entry, the sequences of proteins in these tests, tags left out.
UniProt P62136: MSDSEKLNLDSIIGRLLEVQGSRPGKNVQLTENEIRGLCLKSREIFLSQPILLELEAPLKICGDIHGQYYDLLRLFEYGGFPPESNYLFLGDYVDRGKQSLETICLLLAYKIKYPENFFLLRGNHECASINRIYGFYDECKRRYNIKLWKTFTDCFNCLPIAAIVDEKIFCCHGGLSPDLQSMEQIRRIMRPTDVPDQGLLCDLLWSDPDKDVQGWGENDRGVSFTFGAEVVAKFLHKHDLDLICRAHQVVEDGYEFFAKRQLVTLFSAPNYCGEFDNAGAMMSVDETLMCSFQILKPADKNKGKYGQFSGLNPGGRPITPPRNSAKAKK
UniProt P53396: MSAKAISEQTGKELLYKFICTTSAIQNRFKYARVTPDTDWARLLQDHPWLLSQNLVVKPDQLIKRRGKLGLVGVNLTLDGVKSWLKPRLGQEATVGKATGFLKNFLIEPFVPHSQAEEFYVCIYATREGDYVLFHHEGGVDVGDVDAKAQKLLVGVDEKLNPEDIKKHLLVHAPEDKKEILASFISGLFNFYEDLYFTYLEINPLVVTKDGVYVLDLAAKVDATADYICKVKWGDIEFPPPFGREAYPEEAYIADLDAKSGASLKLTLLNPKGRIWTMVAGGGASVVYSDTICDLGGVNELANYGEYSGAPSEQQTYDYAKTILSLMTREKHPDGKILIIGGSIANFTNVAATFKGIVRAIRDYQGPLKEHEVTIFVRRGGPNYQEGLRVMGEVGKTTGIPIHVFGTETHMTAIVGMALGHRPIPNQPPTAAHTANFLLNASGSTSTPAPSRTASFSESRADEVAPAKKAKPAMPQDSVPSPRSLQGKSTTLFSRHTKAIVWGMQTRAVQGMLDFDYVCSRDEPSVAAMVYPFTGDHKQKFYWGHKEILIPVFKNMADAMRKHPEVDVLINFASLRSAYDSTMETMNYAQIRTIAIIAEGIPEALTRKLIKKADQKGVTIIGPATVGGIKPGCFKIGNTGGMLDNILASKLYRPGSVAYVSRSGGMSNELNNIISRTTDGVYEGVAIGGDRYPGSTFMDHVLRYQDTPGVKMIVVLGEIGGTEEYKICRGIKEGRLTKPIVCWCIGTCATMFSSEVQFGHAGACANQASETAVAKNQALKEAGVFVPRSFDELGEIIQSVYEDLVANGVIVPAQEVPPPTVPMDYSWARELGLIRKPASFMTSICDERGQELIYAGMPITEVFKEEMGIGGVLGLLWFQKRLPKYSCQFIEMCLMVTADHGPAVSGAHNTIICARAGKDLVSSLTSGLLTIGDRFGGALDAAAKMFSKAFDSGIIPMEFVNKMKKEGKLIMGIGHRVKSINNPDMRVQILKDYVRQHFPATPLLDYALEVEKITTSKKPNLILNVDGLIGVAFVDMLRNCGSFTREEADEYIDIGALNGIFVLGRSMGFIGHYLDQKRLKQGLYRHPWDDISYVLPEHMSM

The target of test [1] is T1, Cavin1, cell-free expressed (ALPHAScreen) (mouse) (UniProt O54724).
T1 sequence: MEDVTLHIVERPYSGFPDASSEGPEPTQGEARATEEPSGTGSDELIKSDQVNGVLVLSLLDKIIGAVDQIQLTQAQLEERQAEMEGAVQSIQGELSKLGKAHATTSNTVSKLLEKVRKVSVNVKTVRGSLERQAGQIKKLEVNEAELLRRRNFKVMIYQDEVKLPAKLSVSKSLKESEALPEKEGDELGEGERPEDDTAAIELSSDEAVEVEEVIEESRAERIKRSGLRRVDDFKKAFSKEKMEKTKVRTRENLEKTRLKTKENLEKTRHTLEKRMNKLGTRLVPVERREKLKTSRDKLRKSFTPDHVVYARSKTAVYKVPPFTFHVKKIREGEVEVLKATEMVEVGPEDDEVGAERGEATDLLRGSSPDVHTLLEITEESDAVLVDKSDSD
In words: AlphaScreen or HTRF; ALPHAScreen (cMyc detection kit, streptavidin donor beads) on pairs co-expressed in Leishmania tarentolae cell-free extract, GFP- and Cherry-cMyc-tagged, both configurations averaged, GFP alone subtracted, values above 2000 counted as positive, room temperature. (In general: Bead proximity is the source of the signal in Alpha formats.)

For test [2], the target named is T2, Cavin3, cell-free expressed (ALPHAScreen) (mouse) (UniProt Q91VJ2).
T2 sequence: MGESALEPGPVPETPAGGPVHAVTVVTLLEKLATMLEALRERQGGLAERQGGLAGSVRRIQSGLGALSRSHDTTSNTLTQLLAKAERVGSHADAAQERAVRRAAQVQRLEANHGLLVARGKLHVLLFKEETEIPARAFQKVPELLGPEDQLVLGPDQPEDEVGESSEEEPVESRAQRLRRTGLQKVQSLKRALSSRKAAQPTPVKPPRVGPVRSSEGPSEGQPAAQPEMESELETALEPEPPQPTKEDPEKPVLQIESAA
The description is as above.

The target of test [3] is T3, Cavin2, cell-free expressed (ALPHAScreen) (mouse) (UniProt Q63918).
T3 sequence: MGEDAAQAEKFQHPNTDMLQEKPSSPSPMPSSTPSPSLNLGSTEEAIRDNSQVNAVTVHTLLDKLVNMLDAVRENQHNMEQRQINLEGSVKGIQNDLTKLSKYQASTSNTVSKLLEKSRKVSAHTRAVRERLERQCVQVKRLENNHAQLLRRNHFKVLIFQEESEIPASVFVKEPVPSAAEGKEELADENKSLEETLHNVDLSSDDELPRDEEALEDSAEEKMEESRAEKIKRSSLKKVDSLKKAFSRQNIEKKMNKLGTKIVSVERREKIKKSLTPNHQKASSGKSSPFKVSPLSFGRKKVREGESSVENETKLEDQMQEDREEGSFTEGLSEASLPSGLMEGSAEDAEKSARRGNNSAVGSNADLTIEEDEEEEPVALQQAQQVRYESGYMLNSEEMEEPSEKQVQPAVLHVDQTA
The description is as above.

Test [4] addresses T4, GFP-tagged Cavin1 HR2 domain, cell-free expressed (mouse) (UniProt O54724).
T4 sequence: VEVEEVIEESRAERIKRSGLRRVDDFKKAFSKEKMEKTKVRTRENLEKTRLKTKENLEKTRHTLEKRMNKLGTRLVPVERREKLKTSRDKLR
As to the kind of experiment: AlphaScreen or HTRF; AlphaLISA: GFP-tagged cavin constructs and Cherry-tagged PP1α co-expressed in LTE, diluted 100 times in 25 mM HEPES, 50 mM NaCl, 0.1% BSA, 0.01% Nonidet P-40; anti-GFP acceptor beads, biotinylated mCherry nanobody on streptavidin donor beads, room temperature; GFP-FKBP as negative control.

For test [5], the target named is T5, GFP-tagged Cavin3 HR2 domain, cell-free expressed (mouse) (UniProt Q91VJ2).
T5 sequence: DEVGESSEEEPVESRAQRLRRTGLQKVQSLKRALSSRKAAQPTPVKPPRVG
Described as above.

Test [6] concerns the target T6, GFP-tagged Cavin1 FL, cell-free expressed (AlphaLISA) (mouse) (UniProt O54724).
T6 sequence: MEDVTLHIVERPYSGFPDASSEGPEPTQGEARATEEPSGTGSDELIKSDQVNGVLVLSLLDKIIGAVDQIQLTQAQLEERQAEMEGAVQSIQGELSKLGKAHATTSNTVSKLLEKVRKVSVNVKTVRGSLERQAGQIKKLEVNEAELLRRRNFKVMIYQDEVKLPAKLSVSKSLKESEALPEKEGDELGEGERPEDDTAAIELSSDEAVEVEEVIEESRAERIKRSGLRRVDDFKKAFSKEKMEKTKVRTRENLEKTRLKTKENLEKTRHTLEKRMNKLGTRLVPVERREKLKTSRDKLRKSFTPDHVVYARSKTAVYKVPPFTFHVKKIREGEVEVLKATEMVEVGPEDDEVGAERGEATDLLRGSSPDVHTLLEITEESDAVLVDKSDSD
The test is described as above.

The next test has as its target mCherry-Cavin3 (mouse) (UniProt Q91VJ2). In words: single-molecule coincidence detection; PNS fraction of MCF-7 cells cotransfected with GFP-PP1α and Cherry-Cavin1 or Cherry-Cavin3, in PBS, diluted to about 1 nM; two-colour confocal detection; C = mCherry/(GFP+mCherry); oligomeric state from burst brightness.
For the next test, the target named is T7, GFP-PP1α (UniProt P62136 1-330).
T7 construct: serine/threonine-protein phosphatase PP1alpha catalytic subunit (PP1α); construct provided by the Trinkle-Mulcahy Laboratory; printed both as GFP-PP1α and PP1α-GFP; also called PP1α-GFP; PP1alpha-GFP; source: MCF-7 or A431, transfected, in lysate
In words: co-IP; GFP Trap pulldown from transfected MCF-7 cells (cytosolic fractions, RIPA buffer, 1 h 4 °C), western blot. A general note: A western blot detects proteins with antibodies after separation by electrophoresis.

The next test concerns the target mCherry-Cavin1 (mouse) (UniProt O54724). In words: single-molecule coincidence detection; PNS fraction of MCF-7 cells cotransfected with GFP-PP1α and Cherry-Cavin1 or Cherry-Cavin3, in PBS, diluted to about 1 nM; two-colour confocal detection; C = mCherry/(GFP+mCherry); oligomeric state from burst brightness.

In the case of “ATP citrate lyase (ACLY), cell-free expressed (from UniProt P53396 1-1101) (enzyme)”, the binding entry in test [1] and in test [2] was “binds” throughout.

In the case of “p53, cell-free expressed (from UniProt P04637 1-393)”, the binding entry in [1], in test [2] and in test [3] was “binds” throughout.

Regarding “PP1α-mCherry, cell-free expressed (AlphaLISA) (from UniProt P62136 1-330) (enzyme)”, the binding entry in test [4], in test [5] and in test [6] was “binds” throughout.

B1: mCherry-Cavin3 (natural protein, mouse, UniProt Q91VJ2 1-260, looked up)
chain: MGESALEPGPVPETPAGGPVHAVTVVTLLEKLATMLEALRERQGGLAERQGGLAGSVRRIQSGLGALSRSHDTTSNTLTQLLAKAERVGSHADAAQERAVRRAAQVQRLEANHGLLVARGKLHVLLFKEETEIPARAFQKVPELLGPEDQLVLGPDQPEDEVGESSEEEPVESRAQRLRRTGLQKVQSLKRALSSRKAAQPTPVKPPRVGPVRSSEGPSEGQPAAQPEMESELETALEPEPPQPTKEDPEKPVLQIESAA
notes: Murine Cavin-3 (PRKCDBP), amplified from NIH-3T3 fibroblast cDNA, in an mCherry vector; also called mCherry-tagged Cavin3; source: MCF-7, transfected, in lysate (cytosolic or PNS fraction)
On to B1, for which the binding entry with mCherry-Cavin3 (mouse) is reported as “no binding”; with GFP-PP1α it was “binds”.

B2: mCherry-Cavin1 (natural protein, mouse, UniProt O54724 1-392, looked up)
chain: MEDVTLHIVERPYSGFPDASSEGPEPTQGEARATEEPSGTGSDELIKSDQVNGVLVLSLLDKIIGAVDQIQLTQAQLEERQAEMEGAVQSIQGELSKLGKAHATTSNTVSKLLEKVRKVSVNVKTVRGSLERQAGQIKKLEVNEAELLRRRNFKVMIYQDEVKLPAKLSVSKSLKESEALPEKEGDELGEGERPEDDTAAIELSSDEAVEVEEVIEESRAERIKRSGLRRVDDFKKAFSKEKMEKTKVRTRENLEKTRLKTKENLEKTRHTLEKRMNKLGTRLVPVERREKLKTSRDKLRKSFTPDHVVYARSKTAVYKVPPFTFHVKKIREGEVEVLKATEMVEVGPEDDEVGAERGEATDLLRGSSPDVHTLLEITEESDAVLVDKSDSD
notes: Murine Cavin-1 (PTRF, caveolae-associated protein 1); oligomeric in MCF-7 cells by burst brightness; also called mCherry-tagged Cavin1; source: MCF-7, transfected, in lysate (cytosolic or PNS fraction)
Take B2: the binding result with mCherry-Cavin1 (mouse) and in the test with GFP-PP1α was “binds” throughout.

Values taken from publication PMC6646387, “Identification of intracellular cavin target proteins reveals cavin-PP1alpha interactions regulate apoptosis” (Nature Communications, 2019).
